The target of the experiment is T1, recombinant human MET SEMA domain (human, UniProt P08581 27-515).
T1 construct: domain: SEMA; also called SEMA domain of MET-ECD
Kind of experiment: plate binding assay, 384-well plates coated with recombinant domains.

Amino acid sequences for entries named in this document (tags omitted). Residues count along the entry.
UniProt P08581, residues 27-515: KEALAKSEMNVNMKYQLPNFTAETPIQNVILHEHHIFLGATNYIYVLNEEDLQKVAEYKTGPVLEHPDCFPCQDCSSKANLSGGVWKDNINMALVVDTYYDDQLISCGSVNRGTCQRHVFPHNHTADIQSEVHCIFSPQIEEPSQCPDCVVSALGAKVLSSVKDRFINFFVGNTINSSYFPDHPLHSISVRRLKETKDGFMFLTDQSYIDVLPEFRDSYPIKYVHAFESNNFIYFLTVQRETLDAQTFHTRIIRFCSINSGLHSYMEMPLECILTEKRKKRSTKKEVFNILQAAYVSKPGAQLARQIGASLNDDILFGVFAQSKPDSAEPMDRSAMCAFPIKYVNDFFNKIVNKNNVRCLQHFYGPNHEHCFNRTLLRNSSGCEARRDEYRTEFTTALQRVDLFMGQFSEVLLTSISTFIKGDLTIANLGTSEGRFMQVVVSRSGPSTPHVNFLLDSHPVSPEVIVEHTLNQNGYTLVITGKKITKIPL

No constants are given. Whether binding was seen depends on the method and setting. Some binding calls cover weakened binding; strength is not graded here.

B1: 13-MET human IgG1 antibody (antibody, V domains shown)
VH: QVQLKESGPALVKPTQTLTLTCTFSGFSLSTSGMVVSWIRQPPGKALEWLAFISWDDDKYYSTSLKTRLTISKDTSKNQVVLTMTNMDPVDTATYYCAREPGRYGGYYFDYWGQGTLVTVSS
VL: DIQMTQSPSSLSASVGDRVTITCRASQTISHYLAWYQQKPGKAPKLLIYAASILQSGVPSRFSGSGSGTDFTLTISSLQPEDFAVYYCQQYSGFPVTFGQGTKVEIKR
notes: Fab variable regions combined with human constant regions to give a full human IgG1; ATCC deposit PTA-9148; also called 13-MET IgG; MET-13 IgG
Turning to B1, the binding entry was “binds”.

Values taken from patent US20110142840A1 (ONCOMED PHARMACEUTICALS, published 2011).
